Measured data: PubChem BioAssay AID504808 (Drosophila RNAi Screening Center, 2011)

Purpose: 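Chromatin factors that keep E2F targets switched off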 (primary screen)
Cells: Drosophila S2 cells
Reagents: long dsRNA against Drosophila genes
Detection: 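Dual luciferase plate measurements; E2F-specific signal taken as firefly over Renilla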
Scale: E2F firefly: higher = more E2F reporter activity; Renilla normaliser: higher = more normaliser reporter signal
Rule for the call: 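a knock-down counted as active when the firefly/Renilla E2F signal rose above 50%, a threshold chosen arbitrarily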
In all, the deposit lists about 21,000 reagents; shown is a random part of those that have a named target and a result. Of all reagents, 18 (0.084%) got an active call. 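Raw counts without plate normalisation, one of two replicates; the ratio scores behind the calls were not deposited.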 A plus sign joins genes that one reagent is predicted to hit. Not stated in the record: the amount of reagent, the time to read-out.

no.	gene	dsRNA	E2F firefly, rep 1	Renilla normaliser, rep 1	activity call
1	Kap-alpha3	DRSC16976	1.27e5	6122	inactive
2	Ktl	DRSC14270	63285	3401	inactive
3	CG13177	DRSC06303	97453	3873	inactive
4	nompC	DRSC03581	1.50e5	5149	inactive
5	Or83a	DRSC12357	1.33e5	6377	inactive
6	CG4462	DRSC15583	68309	3609	inactive
7	CG5071	DRSC15710	1.03e5	6177	inactive
8	CG15118	DRSC06540	79610	2973	inactive
9	msi	DRSC17003	87411	5361	inactive
10	CG18507	DRSC01334	1.32e5	6339	inactive
11	CG18507	DRSC01914	1.06e5	4127	inactive
12	Spn38F	DRSC03616	90046	3869	inactive
13	CG17803	DRSC15275	1.40e5	7192	inactive
14	Amy-p	DRSC06786	1.40e5	5687	inactive
15	CG10222	DRSC09714	1.20e5	6509	inactive
16	Sas10	DRSC18355	84695	5309	inactive
17	a5	DRSC00798	1.80e5	5465	inactive
18	CCT1	DRSC16877	1.07e5	7088	inactive
19	CG15414	DRSC00429	1.56e5	5185	inactive
20	r	DRSC19813	2.46e5	6556	inactive
21	r	DRSC19814	1.53e5	6366	inactive
22	lectin-46Ca	DRSC06612	71639	4298	inactive
23	Rpn3	DRSC03318	70561	4793	inactive
24	CG10764	DRSC06000	78468	3578	inactive
25	CG17612	DRSC00505	84381	3716	inactive
26	CG13713	DRSC08322	1.05e5	4449	inactive
27	CG17294	DRSC02596	1.10e5	3996	inactive
28	Vps13B	DRSC15060	1.11e5	5536	inactive
29	Mayo	DRSC14300	1.24e5	6081	inactive
30	CG15024	DRSC08478	91820	3763	inactive
31	Agpat4	DRSC10446	1.63e5	7717	inactive
32	RpL7-like + CG34164	DRSC02836	79265	4400	inactive
33	RpL7-like + CG34164	DRSC02837	1.05e5	4011	inactive
34	RecQ5	DRSC11266	77913	3744	inactive
35	Ir10a	DRSC18891	84338	2835	inactive
36	Ir10a	DRSC19478	1.15e5	5069	inactive
37	Ir10a	DRSC19479	1.19e5	5495	inactive
38	CG15554	DRSC15092	1.25e5	7404	inactive
39	CG10343	DRSC02041	1.09e5	4433	inactive
40	CPT2	DRSC08553	87749	3709	inactive
41	CG34230	DRSC05317	1.32e5	4572	inactive
42	CG42272	DRSC08766	1.43e5	4142	inactive
43	CG6508	DRSC02963	1.47e5	5599	inactive
44	PPO3	DRSC04325	85105	3729	inactive
45	eIF3j	DRSC06107	3661	205	inactive
46	CG18171	DRSC08524	96664	4281	inactive
47	CG5676	DRSC02875	1.54e5	5858	inactive
48	CG3294	DRSC00590	95622	3800	inactive
49	alphaTry	DRSC07577	1.10e5	4396	inactive
50	PIP82	DRSC18694	1.26e5	6948	inactive
51	CG11898	DRSC14432	1.27e5	6591	inactive
52	ND-51	DRSC03145	79231	3485	inactive
53	LanB1	DRSC03360	93532	4176	inactive
54	CG11191	DRSC06056	2599	199	inactive
55	PGRP-LE	DRSC20137	8150	732	inactive
56	Qsox4	DRSC14224	80403	3644	inactive
57	MBD-like	DRSC16996	1.43e5	7015	inactive
58	CG13123	DRSC02219	1.39e5	5057	inactive
59	CG13358	DRSC18534	1.27e5	5634	inactive
60	CG33757	DRSC05159	1.42e5	5728	inactive
61	B9d1	DRSC14993	1.21e5	6041	inactive
62	Trx2	DRSC03622	1.47e5	5885	inactive
63	CG2256	DRSC18220	1.09e5	6011	inactive
64	CG18746	DRSC15383	1.15e5	5136	inactive
65	Stoml2	DRSC04326	85094	3175	inactive
66	CG13847	DRSC14697	68393	3331	inactive
67	CG4511	DRSC15589	1.35e5	7164	inactive
68	Argk2	DRSC10483	92100	3812	inactive
69	LManIII	DRSC03221	1.50e5	5312	inactive
70	Dph5	DRSC16653	62121	3577	inactive
71	CG15525	DRSC15062	1.08e5	6136	inactive
72	CG7916	DRSC01901	88814	3779	inactive
73	CG2120	DRSC18207	1.19e5	6318	inactive
74	CG14183	DRSC10182	78637	3686	inactive
75	mthl1	DRSC19905	2.45e5	7637	inactive
76	CG2006	DRSC15412	1861	920	inactive
77	Alp4	DRSC14116	1.25e5	6847	inactive
78	Myo10A	DRSC19834	43630	3057	inactive
79	Myo10A	DRSC19837	1.30e5	5286	inactive
80	CG14929 + CG4970 + CG14930	DRSC02412	1.46e5	4950	inactive
81	CG10116	DRSC09700	76801	3179	inactive
82	sala	DRSC03605	1.53e5	5017	inactive
83	Kpc1	DRSC16107	79206	3405	inactive
84	AIMP2	DRSC09877	73319	3736	inactive

6 entries from above, limited to “E2F firefly, rep 1”.
Spn38F [DRSC03616]: 90046
CG17803 [DRSC15275]: 1.40e5
Amy-p [DRSC06786]: 1.40e5
CG10222 [DRSC09714]: 1.20e5
Sas10 [DRSC18355]: 84695
a5 [DRSC00798]: 1.80e5
